Test results from the supplement of paper PMC3334620.
Whole data set: some 33,000 sequences, median “E-score (-0.5 to 0.5)” near -0.0034, cut for the highest 2% near 0.25. This is one part of the list.

The sequences below were run against T1, Yap3 (UniProt P38749) (assay: PBM E-score (8-mer binding enrichment) (E-score (-0.5 to 0.5)); higher = stronger / more preferred TF binding). Details: protein concentration: 100 nM; construct: GST-full length.
T1 sequence: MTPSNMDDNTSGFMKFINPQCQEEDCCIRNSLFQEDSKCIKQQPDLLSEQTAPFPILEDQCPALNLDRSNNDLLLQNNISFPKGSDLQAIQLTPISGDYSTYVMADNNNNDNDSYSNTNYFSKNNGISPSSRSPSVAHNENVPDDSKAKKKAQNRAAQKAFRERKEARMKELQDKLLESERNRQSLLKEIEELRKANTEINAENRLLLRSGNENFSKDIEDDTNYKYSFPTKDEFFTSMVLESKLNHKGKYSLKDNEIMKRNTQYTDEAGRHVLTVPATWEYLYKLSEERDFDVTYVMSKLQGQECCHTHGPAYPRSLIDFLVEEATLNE
Method: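 Universal 'all 10-mer' protein binding microarrays (Agilent AMADID 015681) probed with GST-tagged S. cerevisiae TFs (full-length or DBD) made by in vitro transcription/translation (PURExpress), about 100-200 nM. Bound TF was detected with fluorescent anti-GST. Each ungapped 8-mer (which stands for itself and its reverse complement) is scored by the PBM enrichment score (E-score), a modified Wilcoxon-Mann-Whitney statistic from -0.5 to +0.5, computed with the Universal PBM Analysis Suite. Scale: above 0.35 generally sequence-specific binding.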

Row | Sequence | PBM E-score
1 | CGATAGTC | 0.0363
2 | CGTGGCAA | -0.138
3 | TCATTTAA | 0.158
4 | CCACACCA | 0.154
5 | AGGCACCG | -0.276
6 | GAGAGGCA | -0.103
7 | TCTGGTAA | 0.138
8 | CTGTTTAA | 0.0842
9 | ATACCGGC | -0.0328
10 | CACATCTG | -0.146
11 | CCTTCGTA | -0.0891
12 | CTTTCGGC | -0.183
13 | TAAGCTAA | 0.11
14 | AGTACGGG | -0.0367
15 | AATCGCAA | 0.152
16 | GGATTGGA | 0.19
17 | CGACTTAC | -0.0169
18 | AAGGGCAG | -0.0487
19 | ACAGTAAA | 0.169
20 | GGCAATTA | 0.0084
21 | GAGTGACC | -0.154
22 | CCGTTGAA | -0.115
23 | CAGAATCC | -0.0575
24 | ATCGGCTA | 0.0758

Row | Sequence | PBM E-score
25 | TATAACGA | 0.184
26 | CCCACCTA | -0.0899
27 | ACGAGTGC | -0.0843
28 | ACTAAACC | -0.00203
29 | CGCCACCA | -0.25
30 | ATGGTTAC | 0.122
31 | GCGTAACC | -0.00083
32 | CATATAGC | 0.233
33 | AGACGCGC | -0.00085
34 | CCAGGCGG | -0.172
35 | CGACCCGA | -0.139
36 | AAGAATGT | 0.0437
37 | GGGTGGCA | -0.162
38 | GGTCCCAC | -0.182
39 | AGGTCGAA | -0.0156
40 | CATACACG | 0.0356
41 | CTGCAGGA | 0.114
42 | TCCGAGAA | 0.113
43 | GAATGACA | 0.133
44 | AATAGCGT | 0.195
45 | AGGCGGTA | -0.234
46 | CGAGCTCA | 0.106
47 | CAGGTAAG | 0.113
48 | GTAAGCGA | 0.195

Row | Sequence | PBM E-score
49 | CCATAAAC | 0.00629
50 | CACGGGGA | -0.257
51 | ATTACAAG | 0.166
52 | GCTAATAC | 0.176
53 | CTCTTCCA | -0.0498
54 | ACATTATA | 0.148
55 | CCGTATCA | 0.0654
56 | TTGATAAA | 0.231
57 | ATAACGGG | -0.0624
58 | GACAAGTC | -0.154
59 | ATGAATCA | 0.14
60 | ATGGGGTG | -0.107
61 | GGTTACGA | 0.06
62 | CTAATCAA | 0.219
63 | CGTCTAAC | -0.178
64 | AGGACGCC | -0.135
65 | ATTAAGGC | 0.0716
66 | CACTTTAC | 0.141
67 | CAGCGAAA | -0.0644
68 | CCCTTTCA | -0.228
69 | GTGGCCTA | -0.0783
70 | CAAACCAA | 0.149
71 | ATATAGCA | 0.16
72 | GCTACACC | -0.173

6 records picked at random from the list so far, as already listed:
Row | Sequence | PBM E-score
72 | GCTACACC | -0.173
65 | ATTAAGGC | 0.0716
51 | ATTACAAG | 0.166
68 | CCCTTTCA | -0.228
55 | CCGTATCA | 0.0654
54 | ACATTATA | 0.148

The list continues:

Row | Sequence | PBM E-score
73 | ACACGCGG | 0.0915
74 | GCCTGGAA | 0.0533
75 | ACATGTAG | 0.302
76 | AGGTGGTC | -0.0882
77 | ATATGCAC | 0.153
78 | GTTACCCA | -0.0733
79 | GATCGGAC | 0.0646
80 | AAGATTAC | 0.0324
81 | GCGATAGA | 0.0791
82 | ACCTGAGG | -0.256
83 | ATCGTTGG | 0.0333
84 | AAGTATCA | 0.052
85 | ATGATGCA | 0.105
86 | ATTGCATA | 0.148
87 | AGCTAACC | -0.181
88 | ACTGATAT | -0.07
89 | AAGCATGG | -0.143
90 | ACACAAAT | 0.162
91 | CCGCAGAG | -0.227
92 | AACACGAG | 0.147
93 | AAACTGCC | 0.0129
94 | AGTACAAA | 0.0988
